According to patent publication US20260226079A1, “A STRATEGY FOR THE SELECTIVE REMOVAL OF MRI CONTRAST AGENTS” (Portland State University, priority 2023, published 2026):

How the values were obtained:
[1] = SPAAC selective interception of GdDO3A-azido monoamide chelate on DBCO-PS beads, Gd by ICP-MS
Experimental: The GdDO3A-azido monoamide chelate and DBCO-PS beads shown in FIG. 15 were utilized in a similar experiment described previously. Due to the expensive DBCO starting material, the beads were generated on small scales. Accordingly, the scales of the experiments were reduced to 50 mg bead starting material and 0.5 equivalents of GBCA consistent with the loading capacity determined for each batch of DBCO-PS. All other conditions remained constant (1 mL reaction volume, 37° C., 1,000 rpm mixing at pH 7). Samples were prepared for ICP-MS analysis using the same method as previously described with fewer dilutions. The experiments were run with variable reaction times, matrix, and percentage DMSO.

[2] = SPAAC selective interception of GdDO3A-DBCO monoamide chelate on azide terminated PS beads, Gd in supernatant by ICP-MS
Experimental: To address potential stability issues associated with the GdTTHA-Alkyne and azide-PS beads system, tri-acetate mono-amide chelate systems were tested, that may experience fewer experimental difficulties. The initial SPAAC reactions were carried out with GdDO3A-DBCO monoamide chelate and azide terminated bead (FIG. 13). The Gd^3+ concentration was temporally monitored in the supernatant to gain a sense of reaction kinetics and optimal reaction times. To avoid mechanical stirring, a temperature-controlled thermomixer was used which mixed through agitation and was capable of batch testing. And the reaction was analyzed by ICP-MS.
All experiments were performed on a 100 mg bead scale with 0.5 equivalents of GdDO3A-DBCO monoamide chelate in water (1 mL) agitated at 1,000 rpm and 50° C. […] were selected: 3 minutes, 3 hours, 6 hours, 9 hours and 24 hours. The reactions were stopped at their respective time point, the sample was centrifuged and the supernatant was decanted and filtered. The beads were washed and centrifuged three times before the filtered supernatant was freeze dried and digested in HNO3 for ICP-MS analysis.
The effect of pH at relevant pH ranges of urine (~4.5-8) on the efficiency of Gd removal was investigated. Additionally, the role of an organic cosolvent was investigated to determine whether the aqueous medium is a limiting factor in efficiency. A pH range of 5-9 was tested with 1:1 v:v DMSO:H2O at 50° C. stirring at 1,000 rpm for 24 hours. The reaction mixtures were centrifuged, and the supernatant was decanted and filtered. The beads were washed and centrifuged in triplicate and the supernatants were freeze dried and digested for ICP-MS analysis, data summarized below in Table 1.
A multivariate approach was designed to establish the interaction between various levels of cosolvent volume, reaction time and temperature. The volume of DMSO was lowered with the hope of identifying other contributing factors that would lead to an enhanced outcome using a minimal amount of organic cosolvent. Additionally, the temperature ranged from 25° C. to 50° C. and the reaction time was assessed over 0.5 hours and 24 hours, and at pH 7. The scale of the beads and GdDO3A-DBCO monoamide chelate remained the same as previous trials at a 100 mg scale with 0.5 equivalents of GBCA while mixing at 1,000 rpm. The beads were centrifuged, washed, and digested in nitric acid for ICP-MS analysis using the methods described previously, results summarized below in Table 2.
Following the suboptimal results from previous trials with a smaller volume of DMSO cosolvent, the range of added cosolvent was increased to 50% v:v. Additionally, a simulated urine matrix, Surine™, was added to test if there were any significant effects from any urine constituents on the reaction efficiency. The experiments were run with variable reaction times, matrix and percentage DMSO at pH 7 and 37° C.

Compound | maximum Gd removal ([1]; Table 4 study: pH 7, 37° C., variable time, matrix, % DMSO) | maximum removal ([1]; in Surine with DMSO cosolvent) | maximum removal ([1]; in Surine without cosolvent) | efficiency of removal ([2]; Table 2 study: 0-100 μL DMSO, 25-50° C., 0.5-24 hr, pH 7) | maximum Gd removal ([2]; Table 3 study: pH 7, 37° C., variable time, matrix, % DMSO) | percentage of Gd removed from the reaction mixture ([2]; after three minutes, water, 50° C., 1,000 rpm, stock solution pH 2) | removal of Gd ([2]; in Surine with organic cosolvent) | removal of Gd ([2]; in Surine without organic cosolvent) | removal of Gd ([2]; pHs 5, 7 and 9 with 50% DMSO v:v cosolvent in water)
[Gd+3].[N-]=[N+]=NCCCNC(=O)CN1CCN(CC(=O)[O-])CCN(CC(=O)[O-])CCN(CC(=O)[O-])CC1 [GdDO3A-azido monoamide] | 73% | 65% | 73% | – | – | – | – | – | –
O=C([O-])CN1CCN(CC(=O)[O-])CCN(CC(=O)NCCC(=O)N2Cc3ccccc3C#Cc3ccccc32)CCN(CC(=O)[O-])CC1.[Gd+3] [GdDO3A-DBCO monoamide] | – | – | – | ~30% | 82% | over 60% | 80% | 72% | ~98%
